From the supplement of paper PMC12823440, “Inhibitors supercharge kinase turnover through native proteolytic circuits” (Nature, 2025)
Where a name gives a salt, the structure may show the parent alone. The list shows a part of the results. The calls rarely recur for the same compound in another form.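 Kinases, fused to nanoluciferase, were expressed in K562 cells; luminescence was measured every 4 h from 2 to 18 h as percent of control (DMSO = 100%, positive control = 0%). A time point is decreased if signal falls significantly (2 sigma). Hits were called by the authors by a rule that is not shown; the count of time points alone does not decide it.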

The chains behind the UniProt entries cited, without tags or fusion partners. Where a name states a change or a piece, a line headed by the entry shows the natural chain unless it says otherwise.
UniProt Q9UQM7, whole entry: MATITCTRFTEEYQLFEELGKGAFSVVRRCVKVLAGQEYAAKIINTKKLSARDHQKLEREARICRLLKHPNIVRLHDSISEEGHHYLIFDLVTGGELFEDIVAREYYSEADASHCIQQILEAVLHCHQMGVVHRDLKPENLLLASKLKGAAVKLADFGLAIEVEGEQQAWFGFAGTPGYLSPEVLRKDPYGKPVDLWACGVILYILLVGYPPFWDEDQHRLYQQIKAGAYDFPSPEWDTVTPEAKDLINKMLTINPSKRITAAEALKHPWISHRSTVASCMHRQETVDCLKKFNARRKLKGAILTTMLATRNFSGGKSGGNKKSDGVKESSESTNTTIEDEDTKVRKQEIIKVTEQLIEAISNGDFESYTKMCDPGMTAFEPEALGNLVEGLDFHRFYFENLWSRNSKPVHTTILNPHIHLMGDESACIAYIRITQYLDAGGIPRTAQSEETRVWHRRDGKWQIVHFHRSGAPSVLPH
UniProt Q15131: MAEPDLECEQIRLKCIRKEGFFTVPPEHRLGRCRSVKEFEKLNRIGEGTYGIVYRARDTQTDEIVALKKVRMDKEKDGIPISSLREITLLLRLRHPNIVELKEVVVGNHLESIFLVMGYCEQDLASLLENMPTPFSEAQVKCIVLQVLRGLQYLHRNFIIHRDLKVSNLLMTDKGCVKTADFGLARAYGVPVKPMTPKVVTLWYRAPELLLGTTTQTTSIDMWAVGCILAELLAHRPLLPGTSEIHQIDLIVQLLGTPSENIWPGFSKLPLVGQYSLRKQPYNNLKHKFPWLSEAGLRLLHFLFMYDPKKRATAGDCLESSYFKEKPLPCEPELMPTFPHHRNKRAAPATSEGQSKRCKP
UniProt Q00535, whole entry, looked up: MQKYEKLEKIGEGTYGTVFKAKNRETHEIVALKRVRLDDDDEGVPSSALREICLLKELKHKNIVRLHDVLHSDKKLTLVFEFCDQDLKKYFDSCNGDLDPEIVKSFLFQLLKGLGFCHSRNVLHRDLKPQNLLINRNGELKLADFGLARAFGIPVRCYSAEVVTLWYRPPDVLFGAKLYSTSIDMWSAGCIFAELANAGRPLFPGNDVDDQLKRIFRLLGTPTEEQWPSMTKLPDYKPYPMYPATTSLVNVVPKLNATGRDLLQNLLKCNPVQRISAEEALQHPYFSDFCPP
UniProt Q00534, whole entry: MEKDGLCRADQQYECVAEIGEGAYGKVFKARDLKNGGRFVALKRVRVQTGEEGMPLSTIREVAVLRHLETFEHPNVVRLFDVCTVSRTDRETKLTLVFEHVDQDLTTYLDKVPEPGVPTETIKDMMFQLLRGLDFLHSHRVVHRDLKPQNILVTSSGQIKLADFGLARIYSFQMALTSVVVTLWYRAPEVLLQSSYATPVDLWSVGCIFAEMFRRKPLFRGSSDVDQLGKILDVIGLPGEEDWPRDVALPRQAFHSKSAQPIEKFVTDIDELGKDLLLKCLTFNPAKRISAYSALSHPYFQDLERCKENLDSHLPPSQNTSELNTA
UniProt O96017, whole entry: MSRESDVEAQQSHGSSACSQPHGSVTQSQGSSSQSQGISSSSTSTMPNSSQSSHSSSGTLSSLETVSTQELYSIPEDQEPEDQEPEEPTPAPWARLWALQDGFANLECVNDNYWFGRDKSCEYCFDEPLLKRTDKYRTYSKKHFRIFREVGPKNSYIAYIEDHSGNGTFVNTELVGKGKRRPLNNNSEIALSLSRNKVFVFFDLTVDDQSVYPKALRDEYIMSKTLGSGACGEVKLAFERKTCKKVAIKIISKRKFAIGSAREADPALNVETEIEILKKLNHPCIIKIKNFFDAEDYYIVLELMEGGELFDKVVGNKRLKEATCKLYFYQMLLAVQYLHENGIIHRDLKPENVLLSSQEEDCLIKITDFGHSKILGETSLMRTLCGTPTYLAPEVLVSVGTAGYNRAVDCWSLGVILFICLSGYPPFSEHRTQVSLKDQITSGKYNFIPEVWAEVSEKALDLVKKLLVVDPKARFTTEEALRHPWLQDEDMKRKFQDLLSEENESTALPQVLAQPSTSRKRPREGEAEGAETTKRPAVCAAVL
UniProt P07333, whole entry: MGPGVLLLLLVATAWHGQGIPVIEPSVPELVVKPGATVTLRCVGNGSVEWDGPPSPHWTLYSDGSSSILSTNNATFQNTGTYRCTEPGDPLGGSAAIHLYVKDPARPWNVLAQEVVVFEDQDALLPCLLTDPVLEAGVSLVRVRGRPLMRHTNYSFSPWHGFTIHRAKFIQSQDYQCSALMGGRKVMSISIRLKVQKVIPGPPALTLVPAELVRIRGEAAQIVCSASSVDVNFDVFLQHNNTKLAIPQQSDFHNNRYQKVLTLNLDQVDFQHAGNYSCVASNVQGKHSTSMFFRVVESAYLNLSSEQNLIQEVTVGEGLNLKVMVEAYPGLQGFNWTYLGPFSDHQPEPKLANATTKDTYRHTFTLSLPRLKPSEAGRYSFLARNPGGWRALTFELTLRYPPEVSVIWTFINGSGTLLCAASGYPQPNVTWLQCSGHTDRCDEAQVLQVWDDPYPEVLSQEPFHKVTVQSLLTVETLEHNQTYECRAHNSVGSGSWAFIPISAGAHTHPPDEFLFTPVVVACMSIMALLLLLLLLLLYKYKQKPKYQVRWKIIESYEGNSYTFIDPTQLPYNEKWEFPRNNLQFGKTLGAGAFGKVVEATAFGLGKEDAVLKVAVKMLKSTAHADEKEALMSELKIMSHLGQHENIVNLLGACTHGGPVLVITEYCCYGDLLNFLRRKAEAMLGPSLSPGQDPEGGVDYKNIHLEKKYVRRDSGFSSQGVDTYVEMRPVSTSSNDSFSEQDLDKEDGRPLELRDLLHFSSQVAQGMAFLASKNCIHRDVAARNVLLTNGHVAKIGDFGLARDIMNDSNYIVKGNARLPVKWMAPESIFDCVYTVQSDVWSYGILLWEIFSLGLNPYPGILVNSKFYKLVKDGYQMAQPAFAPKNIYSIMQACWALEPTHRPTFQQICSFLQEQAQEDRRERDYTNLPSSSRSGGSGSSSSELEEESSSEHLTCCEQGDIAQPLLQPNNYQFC
UniProt P41240: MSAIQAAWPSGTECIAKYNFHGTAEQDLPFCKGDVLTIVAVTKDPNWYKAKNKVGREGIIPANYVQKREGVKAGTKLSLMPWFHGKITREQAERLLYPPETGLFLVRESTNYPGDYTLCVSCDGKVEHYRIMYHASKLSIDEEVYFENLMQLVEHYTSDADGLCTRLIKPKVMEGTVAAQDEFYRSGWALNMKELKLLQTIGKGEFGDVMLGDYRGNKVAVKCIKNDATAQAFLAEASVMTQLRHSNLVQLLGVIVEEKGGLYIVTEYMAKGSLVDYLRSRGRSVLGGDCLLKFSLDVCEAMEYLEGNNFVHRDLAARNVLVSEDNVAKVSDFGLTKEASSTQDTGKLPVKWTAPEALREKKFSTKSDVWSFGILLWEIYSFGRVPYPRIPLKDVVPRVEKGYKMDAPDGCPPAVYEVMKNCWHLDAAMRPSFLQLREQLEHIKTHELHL
UniProt P48729: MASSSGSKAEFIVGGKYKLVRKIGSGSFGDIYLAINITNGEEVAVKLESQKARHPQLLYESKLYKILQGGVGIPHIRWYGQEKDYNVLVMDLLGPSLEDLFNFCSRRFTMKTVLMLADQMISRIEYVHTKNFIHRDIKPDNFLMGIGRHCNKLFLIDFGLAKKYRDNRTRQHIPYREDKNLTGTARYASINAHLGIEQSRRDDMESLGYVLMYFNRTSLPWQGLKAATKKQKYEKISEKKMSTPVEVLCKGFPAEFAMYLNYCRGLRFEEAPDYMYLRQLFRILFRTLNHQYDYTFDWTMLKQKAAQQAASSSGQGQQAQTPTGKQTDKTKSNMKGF
UniProt P48730: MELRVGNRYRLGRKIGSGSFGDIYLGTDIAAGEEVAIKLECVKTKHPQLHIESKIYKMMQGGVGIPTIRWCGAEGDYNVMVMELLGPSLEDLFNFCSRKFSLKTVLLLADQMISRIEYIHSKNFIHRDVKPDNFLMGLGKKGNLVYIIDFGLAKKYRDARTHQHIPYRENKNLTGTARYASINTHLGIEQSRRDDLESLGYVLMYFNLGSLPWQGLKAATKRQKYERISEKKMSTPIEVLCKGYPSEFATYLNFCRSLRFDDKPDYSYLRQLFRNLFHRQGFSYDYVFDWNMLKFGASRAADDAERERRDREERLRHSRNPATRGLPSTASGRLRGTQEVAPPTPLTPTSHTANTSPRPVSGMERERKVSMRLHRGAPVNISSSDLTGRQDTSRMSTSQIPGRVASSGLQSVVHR
UniProt Q08345: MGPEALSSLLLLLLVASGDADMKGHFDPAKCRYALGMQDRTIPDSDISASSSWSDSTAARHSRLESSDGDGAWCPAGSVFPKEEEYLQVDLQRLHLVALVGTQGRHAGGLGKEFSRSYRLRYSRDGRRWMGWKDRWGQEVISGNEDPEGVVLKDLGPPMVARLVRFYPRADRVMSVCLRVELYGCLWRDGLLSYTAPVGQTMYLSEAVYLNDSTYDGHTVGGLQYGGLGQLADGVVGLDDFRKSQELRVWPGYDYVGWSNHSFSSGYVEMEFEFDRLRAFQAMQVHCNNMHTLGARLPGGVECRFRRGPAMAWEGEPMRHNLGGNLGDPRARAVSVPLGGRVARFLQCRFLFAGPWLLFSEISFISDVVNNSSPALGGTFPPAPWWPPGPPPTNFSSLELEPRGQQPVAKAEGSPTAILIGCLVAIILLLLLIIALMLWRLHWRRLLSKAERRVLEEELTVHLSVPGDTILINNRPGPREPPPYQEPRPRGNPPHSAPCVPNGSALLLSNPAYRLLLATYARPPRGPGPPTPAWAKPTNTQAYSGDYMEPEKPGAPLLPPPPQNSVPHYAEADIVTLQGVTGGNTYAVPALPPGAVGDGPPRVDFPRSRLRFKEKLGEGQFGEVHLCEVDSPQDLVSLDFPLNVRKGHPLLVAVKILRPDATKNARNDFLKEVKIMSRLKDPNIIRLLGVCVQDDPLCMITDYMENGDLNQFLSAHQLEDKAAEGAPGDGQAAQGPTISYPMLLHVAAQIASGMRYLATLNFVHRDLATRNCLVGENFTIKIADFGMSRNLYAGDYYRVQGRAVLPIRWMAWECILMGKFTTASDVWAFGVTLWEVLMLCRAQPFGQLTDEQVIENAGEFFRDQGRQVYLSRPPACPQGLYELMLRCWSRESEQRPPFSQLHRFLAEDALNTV
UniProt Q9Y463, whole entry, looked up: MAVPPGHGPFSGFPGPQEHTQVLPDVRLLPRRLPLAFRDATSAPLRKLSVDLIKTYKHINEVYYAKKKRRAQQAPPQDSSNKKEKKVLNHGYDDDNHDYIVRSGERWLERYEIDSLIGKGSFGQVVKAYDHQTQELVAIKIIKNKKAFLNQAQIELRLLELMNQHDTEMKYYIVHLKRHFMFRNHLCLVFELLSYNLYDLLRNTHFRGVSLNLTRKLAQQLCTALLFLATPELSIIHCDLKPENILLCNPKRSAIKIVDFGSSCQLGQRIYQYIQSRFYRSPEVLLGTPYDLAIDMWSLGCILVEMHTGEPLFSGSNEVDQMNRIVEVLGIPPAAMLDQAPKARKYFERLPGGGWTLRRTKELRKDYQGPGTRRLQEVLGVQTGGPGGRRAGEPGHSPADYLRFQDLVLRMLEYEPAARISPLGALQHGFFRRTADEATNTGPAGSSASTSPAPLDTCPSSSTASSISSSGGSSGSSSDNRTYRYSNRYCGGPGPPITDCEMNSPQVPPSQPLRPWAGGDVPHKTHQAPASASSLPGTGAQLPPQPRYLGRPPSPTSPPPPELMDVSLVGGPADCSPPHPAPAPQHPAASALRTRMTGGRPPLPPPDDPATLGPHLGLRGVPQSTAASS
UniProt Q92630: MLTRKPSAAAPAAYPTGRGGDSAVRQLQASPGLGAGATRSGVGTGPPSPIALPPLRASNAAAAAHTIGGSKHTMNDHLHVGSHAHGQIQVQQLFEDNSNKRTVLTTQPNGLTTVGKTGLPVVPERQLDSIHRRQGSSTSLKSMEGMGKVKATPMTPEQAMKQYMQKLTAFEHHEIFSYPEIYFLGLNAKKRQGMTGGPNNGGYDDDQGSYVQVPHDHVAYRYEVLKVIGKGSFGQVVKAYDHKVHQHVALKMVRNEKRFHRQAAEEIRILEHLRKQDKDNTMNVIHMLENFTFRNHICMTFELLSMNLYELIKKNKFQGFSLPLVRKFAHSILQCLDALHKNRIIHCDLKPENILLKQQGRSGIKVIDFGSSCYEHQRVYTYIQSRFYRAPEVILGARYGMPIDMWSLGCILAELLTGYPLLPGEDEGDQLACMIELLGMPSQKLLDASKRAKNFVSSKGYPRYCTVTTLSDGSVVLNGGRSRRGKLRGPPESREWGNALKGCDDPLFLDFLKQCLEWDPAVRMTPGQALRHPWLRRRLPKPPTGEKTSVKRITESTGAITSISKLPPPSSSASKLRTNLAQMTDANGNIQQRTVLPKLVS

Columns and labels:
Test in all cases: number of time points (of 5) at which kinase-Nluc abundance scored as decreased, DMSO-normalised (count); higher = more persistent destabilization
Settings in all cases: K562; 2-18 h
CAMK2A = CAMK2A (UniProt Q9UQM7)
CAMK2G = CAMK2G (UniProt Q13555)
CDK10 = CDK10 (UniProt Q15131)
CDK2 = CDK2 (UniProt P24941)
CDK3 = CDK3 (UniProt Q00526)
CDK5 = CDK5 (UniProt Q00535)
CDK6 = CDK6 (UniProt Q00534)
CHEK2 = CHEK2 (UniProt O96017)
CSF1R = CSF1R (UniProt P07333)
CSK = CSK (UniProt P41240)
CSNK1A1 = CSNK1A1 (UniProt P48729)
CSNK1D = CSNK1D (UniProt P48730)
DDR1 = DDR1 (UniProt Q08345)
DYRK1B = DYRK1B (UniProt Q9Y463)
DYRK2 = DYRK2 (UniProt Q92630)
EGFR = EGFR (UniProt P00533)
EGFR_G719S = EGFR_G719S (UniProt P00533)
EGFR_G719S_T790M = EGFR_G719S_T790M (UniProt P00533)
EGFR_L718V = EGFR_L718V (UniProt P00533)
EGFR_L858R = EGFR_L858R (UniProt P00533)

SMILES	number of time points (CAMK2A)	number of time points (CAMK2G)	number of time points (CDK10)	number of time points (CDK2)	number of time points (CDK3)	number of time points (CDK5)	number of time points (CDK6)	number of time points (CHEK2)	number of time points (CSF1R)	number of time points (CSK)	number of time points (CSNK1A1)	number of time points (CSNK1D)	number of time points (DDR1)	number of time points (DYRK1B)	number of time points (DYRK2)	number of time points (EGFR)	number of time points (EGFR_G719S)	number of time points (EGFR_G719S_T790M)	number of time points (EGFR_L718V)	number of time points (EGFR_L858R)
O=C(O)c1nn(Cc2ccc(Cl)cc2Cl)c2ccccc12 [Lonidamine] (10 µM)	0	0	0	0	0	0	0	0	0	0	0	0	0	0	0	0	0	0	0	0
COc1ccc2c(c1OC)C(OC)N(C)c1c-2ccc2cc3c(cc12)OCO3 (stereo not given) [Angoline] (10 µM)	0	0	0	0	0	0	0	0	0	0	0	0	0	0	0	0	0	0	0	0
O=C1c2ccccc2C(=O)c2c1cccc2-c1cnn(C2CCNCC2)c1 [PDK4-IN-1 (hydrochloride)] (10 µM)	0	0	0	0	0	0	0	0	0	0	0	0	0	0	0	0	0	0	0	0
COc1ccc2c(c1)[nH]c1c(C)nccc12 [Harmine] (10 µM)	0	0	0	0	0	0	0	0	0	0	0	0	0	0	0	0	0	0	0	0
C[C@@H]1CC[C@H]2[C@@H](C)C(=O)O[C@@H]3O[C@@]4(C)CC[C@@H]1[C@]32OO4 [Artemisinin] (10 µM)	0	0	0	0	0	0	0	0	0	0	0	0	0	0	0	0	0	0	0	0
N#CC(C#N)=NNc1cccc(Cl)c1 (2.5 µM)	0	0	0	0	0	0	0	0	0	0	0	0	0	0	0	0	0	2	0	0
C[C@H]1CC[C@]2(NC1)O[C@H]1C[C@H]3[C@@H]4CC[C@H]5C[C@@H](O)CC[C@]5(C)[C@H]4CC[C@]3(C)[C@H]1[C@@H]2C [Tomatidine (hydrochloride)] (10 µM)	0	0	0	0	0	0	0	0	0	0	0	0	0	0	0	0	0	0	0	0
O=c1[nH]c2ccccc2n1C1CCN(Cc2ccc(-c3[nH]c4cc5ncnc5cc4nc3-c3ccccc3)cc2)CC1 [AKT inhibitor VIII] (2.5 µM)	0	0	0	0	0	0	0	0	0	0	0	0	0	0	0	0	0	0	0	0
O=[N+]([O-])/C=C/c1ccc2c(c1)OCO2 (2.5 µM)	0	0	0	0	0	0	0	0	0	0	0	0	0	1	0	0	0	0	0	0
C[C@H]1CC[C@]2(NC1)O[C@H]1C[C@H]3[C@@H]4CC[C@H]5C[C@@H](O[C@@H]6O[C@H](CO)[C@H](O[C@@H]7O[C@H](CO)[C@@H](O)[C@H](O[C@@H]8OC[C@@H](O)[C@H](O)[C@H]8O)[C@H]7O[C@@H]7O[C@H](CO)[C@@H](O)[C@H](O)[C@H]7O)[C@H](O)[C@H]6O)CC[C@]5(C)[C@H]4CC[C@]3(C)[C@H]1[C@@H]2C [Tomatine] (2.5 µM)	0	4	0	0	0	0	0	4	5	0	0	4	0	0	0	0	0	0	0	0
CC(=O)c1c(O)c(C)c(O)c(Cc2c(O)c3c(c(C(=O)/C=C/c4ccccc4)c2O)OC(C)(C)C=C3)c1O [Rottlerin] (2 µM)	0	0	0	0	0	0	0	0	0	0	0	0	0	0	0	0	0	0	0	0

Quoted from the listing:
Under number of time points (CDK6), C[C@H]1CC[C@]2(NC1)O[C@H]1C[C@H]3[C@@H]4CC[C@H]5C[C@@H](O[C@@H]6O[C@H](CO)[C@H](O[C@@H]7O[C@H](CO)[C@@H](O)[C@H](O[C@@H]8OC[C@@H](O)[C@H](O)[C@H]8O)[C@H]7O[C@@H]7O[C@H](CO)[C@@H](O)[C@H](O)[C@H]7O)[C@H](O)[C@H]6O)CC[C@]5(C)[C@H]4CC[C@]3(C)[C@H]1[C@@H]2C [Tomatine] (2.5 µM) has 0
Under number of time points (EGFR_G719S), O=C(O)c1nn(Cc2ccc(Cl)cc2Cl)c2ccccc12 [Lonidamine] (10 µM) has 0
